Data taken from paper PMC10723533.
No constants are given. Whether binding was seen depends on the method and setting. Binding seen in cells or lysates may run through a third protein. These calls come from enrichment with a bait or labelling near it, and not all partners need be listed. For some of these results: Tags and fused reporters may be left off the sequences shown.

T1: Paa1-L-YFP (S. pombe) (UniProt Q9UT08)
T1 sequence: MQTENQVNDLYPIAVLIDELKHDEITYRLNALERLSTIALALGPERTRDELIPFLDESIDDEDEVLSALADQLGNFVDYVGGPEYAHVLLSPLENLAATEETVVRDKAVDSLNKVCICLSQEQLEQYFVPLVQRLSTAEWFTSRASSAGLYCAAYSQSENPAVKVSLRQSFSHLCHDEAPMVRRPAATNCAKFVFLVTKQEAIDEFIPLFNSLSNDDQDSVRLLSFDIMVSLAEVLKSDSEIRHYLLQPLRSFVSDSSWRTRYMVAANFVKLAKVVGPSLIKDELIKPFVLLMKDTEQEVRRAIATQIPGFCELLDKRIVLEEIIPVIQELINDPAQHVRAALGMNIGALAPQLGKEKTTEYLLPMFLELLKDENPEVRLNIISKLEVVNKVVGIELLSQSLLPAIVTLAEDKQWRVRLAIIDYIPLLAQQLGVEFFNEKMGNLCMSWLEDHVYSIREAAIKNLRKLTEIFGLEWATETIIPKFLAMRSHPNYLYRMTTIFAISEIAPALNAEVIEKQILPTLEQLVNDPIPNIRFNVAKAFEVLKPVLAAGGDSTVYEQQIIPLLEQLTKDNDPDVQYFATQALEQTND


What was measured:
Paa1-L-YFP (S. pombe) = biological target: T1, Paa1-L-YFP (S. pombe); experiment: affinity purification with mass spectrometry; YFP-tagged bait (Paa1-L-YFP or Pab1-L-YFP) on GFP-Trap beads; cells 1 hour in EMM2-N, crosslinked with 1% formaldehyde for 10 min at 25 °C; lysis buffer 25 mM Tris HCl pH 7.5, 150 mM NaCl, 0.5% SDS (diluted to 0.1%), 1% NP40; washes with 500 mM NaCl
GFP-Pab1 (S. pombe) = experiment: affinity purification with mass spectrometry; GFP-Pab1 (nmt41 promoter) on GFP-TRAP magnetic agarose beads; cells in EMM2 or shifted to EMM2-N for 1 hour; NP-40 buffer (1% NP-40, 150 mM NaCl), 90 minutes at 4°C; 2D-LC-MS/MS

| Binder | binding (Paa1-L-YFP (S. pombe)) | binding (GFP-Pab1 (S. pombe)) |
| --- | --- | --- |
| Ppe1 (enzyme, UniProt P36614 1-305) MFDLDEWIATVRKCKYLPEHQLKRLCEMVKVILMEESNIQPVRTPVTVCGDIHGQFYDLLELFRVGGELPSTNYIFMGDFVDRGYFSLETFTLFMLLKARYPDKITLLRGNHESRQITQVYGFYDECQTKYGNANVWKYCCQVFDFLTLAAVIDNKILCVHGGLSPEVRTLDQIRILARAQEIPHEGSFCDLMWSDPEDIESWTVSPRGAGWLFGSKVTTEFSQINDLTLIARAHQLVQEGYKYHFADKNLVTVWSAPNYCYRCGNVASVMKVDESLEPEFRIFSAVADEDRTVPPSRKRSEYFI | binds | – |
| Ekc1 (protein, UniProt O74511 1-838) MFWRLGQGFGFQSSSAIEAILDKPEDEINLKELLEENGVLDECKSHNPKLLEYLCKPEVLSQLIDYILEVDETEIPSADGGYEEPEHTRLSYIASEILSSDVWSICEACVENKTLMVKLWSFLDSEGPLNPLQASYFAKVNEHFLDKKTEETVAFIQSIDNFVEKILRHAETSAIMDLLLKFISMDRCNTAIGIADWLYSQGLIQSLLRLLSPYVDPDVQFTVADVIKAIIAISANSNEPGVIGPNSLSRELVSRQTITTLTDYMTDSKAPHSATSLINGVSIVIELIRKNNSDYDVTPVLQMPLDTHPPTTRDPIYLGTMLRLFAEKIPVFQKILLKPSTESDLMPTSFGKIKPLGFERFRICELYAELLHCSNMSLLSDPNGEAMVMQRDHLRDYLFRHNSCARDLVMSDEDDDDSTFSDKNSKDFKETEDMNGAEDMHGRAPQITKDNLNLTTTDSPMSEAEPVSEEEYKDVMETAKALHHGDDDAASDTSYEPLPESVIEDAKKLPVIGDFLKIEFIQNNVIPTILDHFFDYPWNNFLHNVVYDVVQQVLNAPMDKDQNYALAVDMFKQGKITEKIVYGQELNDKKVAKPSGFRAGYMGHLTIIADEVVKFVEHYSSTFDQELLNLINDEKWQNFVNKTLVETRNRDNQLLGGLEPSMVGYLEDMDEGEMLDANNLPEMQFALEQELESNSSDDDVVEVHRELSHNSSSNDEDDGNDEDPLSREMSRRLSFESANDSDQDNRDHFAQYMSQQISDNNANQFSSSDEDDDDDDEVVEWVSRGNENKYPRSNFFINGSDREDFSDSEEEDGNDSSDDDRGFAEEEYSDGLVLNHGK | binds | – |
| Elp1 (protein, UniProt O59704 1-1253) MKNLVTHLHHVFPNVNGSIKALAFNSISDKIYVVCGLDNENPGIEIYEISENDDVSKLVEFDSPSFVSDNGDIDEIQSMQFLGEPMAICLSLKGGDIVMVKVDPSPEEAPWEIIGNVENGIVASCWSTDEQVFCIITGGDTILFMTKNFDIISETSLSDADLNEFNKHISVGWGRSETQFRGKRVRAKLRDPTLPEKIDEGKLSDVDDGKTYICWRGDSQYVSINRLEKGPRRAIRVYSREGLLDSISEPQDGQQSLLSWKPSGSVLATIKSDSSDNSSKVIFFERNGLRHGEFSLRRREDEKYTGLAWNVSSSILAVSTENSVMLWTTGNYHWYLKKEINIPQNALISWHPEHANTLYITGKNHIEKVVFDLKYVTEFSTSPNDFGLIPVIDGSSLLVTPLSLCNIPPPMCRYKLSLDYNVQMTSINATSDMLFAADDRRLTAFTFNSQEDIAKFGEFDISTYAEGLNFKSLLGLSGNQVLLLADGTNNCSKFFVFQCDEDNESLKLLASESFESCILNASYCSEMLFFQTSSGKLISYNLNVKSIESISLSFPKPCSDFVVVPVHETFVPIGLTSYGRLYAEQRLLSTGVLSFFCTERFVLFTTTKNLLKFVHLVSTVDDLQVVEDDAVDRHDERCRVVERGSKIVASMPSKMAVVLQMPRGNLETIYPRIMVLDGVRTYIKALKYGDAFKVCRTHRLDLNILFDYDPDLFLKNIPVFVDGLYRVDYLDLFLTSLKPENVTTGMYSDTSKSQSQQSVTTIDNKVNLLCKIIREHLTSKYGDTHFQAIITSYLCESPPKIEAALGMISGLIKAQSETVDLAIEHMCFLVDVNMLFDHALGLYDLKLALLIAQQSQKDPREYVPFLHEFQKQESLRRKFNIDCYLKRYERALGHLKEMENAFDEFKNFTIQHKLYPRALELYKYDKEAQKEVLIIFAQYLRENGKSNEAAIAYESVGKISEAIEAYKSAGMWRECLSILQQTTNSEDLIRETAEDLASLCIEKREHCDAGSINLLYLSNPREAVIQMCKGSQYSEAIRIARATGDSSIYKDLLISVLGESFGEASELVADFRNQIKSQTERILVLREKKKEDPISWMEGTMEDQTPDDISLASTSLSTNRSLYTQYTKSSNSSKMTRNTSKNNRRLERKRARGKKGTVFEEEYLVNSLRRLIARVEEIRPEVHRLLEALVRCNMTTQASELQRNFANVIGTIGEKVIPILSVPVSTFETALGEQPQAPVVPNVKPFEKLSILI | – | binds |
| Elp2 (protein, UniProt O94533 1-760) MFQYEALHVGCNRIPTAATWSSNLGLIYGAERLIAVADPFKEINYLMAGHSGRINCVCELATNSEYRSPFILSGASDKTLRLWQLEEEYFTCIKTIELEATVNCLCVNENLVVCGCSNSSCIVYSWNAEQRNLTEISRFTCSEIIPLEFAIVKLDHGIILTVCGSSKKIMVYGSDSAISSFKLKAVLRGHLDWVRTLSFKKTSGSTATLASGSQDRYIRLWNISLWGSEDEKVSEEFFESVLSNKPVRFTLGKIDLKIVFDALLMGHEDWVMSVDWHPTKEMILSSSADSSMIVWEPDTNTGIWVVTGRMGEMASSHGSTTATGSAGGFWGGLWNPNGNCVVCWGRTGGWRLWKQDAGQWLQLPSISGHTKSVKGVAWDPEGKFYLSAGTDQTTRLFARFKKDNAWHEMARPQIHGYDLTSISCMPSRIGFLSCADEKVSRVFKFPKTIVRLLYRLCDTNIGEESLPDAANVPLLGLSNKATTASETGTVNAEEVQTPVADVIGSLNHPPFEEHLQRLLLFPEVEKLFGHGYEVYACAISNNGNIAATSCKSQTPEHAVIRLYETQSWNQQQVLKGHSLTVTTIKFSPDDRYILSAGRDRLVCLHEQAENLLDYNNFASIKAHSRIIWDASWAPKEMGYFFATASRDKFVKFWKINDNKKICDVAALQFSDAVTAVDFAPFFHNDELLLAVGTEAGKIFIWRCPRENLTKWYPTRLPDHMAPMESINQILWKPTFETMGLYSLLIAGEDTSVRLLNVTLG | – | binds |
| Elp3 (enzyme, UniProt O14023 1-544) MSTSSLAFLKAKACAEIVAELIASENQNKVINLNALKMRISKKHQLSESPRLTDIIAAIPPDAYLKESLMRKLRAKPVRTASGIAVVAVMCKPHRCPHIAMTGNVCVYCPGGPDSDFEYSTQSYTGYEPTSMRAIRARYDPYEQARGRVEQLRSLGHTVDKVEYIIMGGTFMSLPESYRHTFIANLHNALSGATTEDLDEAVKFSEQSETKCVGITIETRPDYCLDQHLDEMLRYGCTRLEIGVQSVYEDVARDTNRGHTVKAVCETFQLAKDTGYKVVTHMMPDLPNVGMERDIFQFQEYFENPAFRTDGLKLYPTLVIRGTGLYELWKTGRYKNYTPNALVDLIARILALVPPWTRIYRIQRDIPMPLVSSGVETGNLRELALNRMRDLGTKCRDIRAREVGMQEVHHKIHPEQVELLRRDYTANGGWETFLSYEDPKQDILIGLLRLRQCSDKTYRPEFTSQPTSLVRELHVYGSAVPVHSRDPKKFQHQGFGTLLLEEAERIAKYEHGSKKISVISGVGVRKYYQKLGYTLDGPYMSKWL | – | binds |
| Par2 (protein, UniProt P78759 1-627) MKGLRSKFVKALSLKDEQGSHKNGHSKSHYISKNGSYVETDDVKHTDTHHSSKHELKKLKSHFLKDTLKHKRNHHANSNNEKHENSDKKIHTTVLASGHEDSDYSTFLPVIETSKVKDANHFPPNYPEPKNDSVSSNIDEFPNDSISSASFLSVPQSTPPYLVSQPTPLNKFLAGAENVDIPHSLRPVPRREHSSQFQVSEKRTLVRLPSFDDVHTSEREELFIKKLEQCNIIFDFNDPSSDLASKEIKREALLQMIDYVSENRGISSASLFPYVVNTFSLNVFRPISPALNDYSSDMFALDDEPFLEPAWPHLEEVYLLFIKFLESPDFRASKAKSLVDRRFFNRLLALFDTEDPRERELLKTTLHRIYGKFLNLRSYIRKSMNNVFLQFIYEREKFHGIAELLEILGSIINGFAVPLKEEHKIFLSKVLIPLHQTKSVFLYHPQLTYCIVQFIDKDPSLTKAVLTGILKYWPRINSFKELLFLNEIEDIFEVLEPSEFVNIMSPLFQQLARSISSMHFQVAERALCLWSNEYFTSLVSQNVVTLLPIIYPSLYKTANEHWNSTIQAIACNVLQIFVDMDADFFNGLVEDYKQAIIKQEEVMIIRKQQWCQIEALAAENKPTDYLR | binds | – |
| Zds1 (protein, UniProt O14100 1-938) MSSSSVSNTLSIETKSDPKDPAFVASQESTECNEHDTTQLSGSSSEPLENNSSLTRSTDDPSVEIRSKLVSPDNEANLLSDQNITISNENNNENDTTEEAETSSGNEAADDEDSSSDAQSSVPSFSEIHDGMSEEELDKERKTLTHLRRISLQGADDPEIPTDWSVAMSPPETEQDASTLFWVPANLHPELNPTGWKSFLDLQVKNLKSPTATDTSSSPLEHIRSLRRRKSLLSRQVKADDAVINYQDGSPIVEKAYLKRHRSLRLNELEHLESLARDPHRMVSLVDGMSNGSPEDSPLLVSPNHFLQRSSRTTIRRTGASIRTIHRGKTSTLSGNRSHSILQKPTDTSPLHKIEPISADELVESDDSRTSALSNSQNPSDDVENQSDQALEVLSLTNPPKIDNASADTTLHKETNKIDKLYVSENKAESAVASESSLSEGTLALKAPAPENKPEKSSTSKPPVPENKAEDSVVLKSSVPEDKSENSIASKPSATEGIPENAIALQSSVPENKAEDSVVLKSSVPEDKSEDSVPSKSSVLEDKHENSVEIDKKADDSLPSNNKTEGYTPSVVREEKNYSEPNASPSVIPPRVPTPVPGRTLSPKPTRIPTPIPSSLNVSLESSKKPEIFHERHIPTPETGPNKPSKNNILKSTQVPVTPKQKSSTANKGSTSSPSPPSSESKKTKRSWGRLFVSGDSDKEHKEHKKDKQKKKNDQISSSSKSASSFKKDRDKESIFGSLFGSKKKQTEIPPVSSSPPHNDAPPKAKPISAPSELPNTTSVAEAKCQTVTDDEGTDQQSDEKSTEPKTFIPDKDYYWSRFPICTERAIYRLSHIKLSNAHRPLFQQVLLSNFMYSYLDLISRISSNRPMNNVQQSTAKPIRKDINGQQRRSEFSAENVKNELENLSYQFGDQRKRNLNRKGSTIHTVSQNIQKVSKNAK | binds | – |
